Measured values from article PMC7431030 (Nature, 2020).

Tested on: SARS-CoV-2
Format: cell-based

CN1CCC[C@@H]1CCO[C@](C)(c1ccccc1)c1ccc(Cl)cc1 [clemastine]
antiviral activity / viral infectivity (in words): antiviral activity
